Laboratory results as given in paper PMC9106352.
No constants are given. Whether binding was seen depends on the method and setting. In cells and extracts the contact can be indirect. Some entries that bind do so weakly or less than the wild type.

Sequences of proteins named here, by UniProt entry; tags and fusion partners are left off. Residues count along the entry.
UniProt Q03265, residues 44-553: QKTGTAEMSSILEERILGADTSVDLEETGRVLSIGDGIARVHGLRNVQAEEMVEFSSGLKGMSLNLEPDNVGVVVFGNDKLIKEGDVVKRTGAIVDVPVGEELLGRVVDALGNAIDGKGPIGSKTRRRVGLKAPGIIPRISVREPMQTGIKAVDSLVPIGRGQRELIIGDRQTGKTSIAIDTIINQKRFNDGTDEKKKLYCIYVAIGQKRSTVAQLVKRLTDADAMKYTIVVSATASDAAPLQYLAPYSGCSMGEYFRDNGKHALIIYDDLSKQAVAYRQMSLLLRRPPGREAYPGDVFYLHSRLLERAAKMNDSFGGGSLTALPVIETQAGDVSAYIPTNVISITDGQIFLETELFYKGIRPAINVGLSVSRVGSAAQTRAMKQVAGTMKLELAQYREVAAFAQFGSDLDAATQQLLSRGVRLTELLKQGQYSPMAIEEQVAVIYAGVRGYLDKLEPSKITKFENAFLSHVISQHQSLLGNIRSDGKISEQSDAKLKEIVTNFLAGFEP
UniProt P56480, residues 47-529: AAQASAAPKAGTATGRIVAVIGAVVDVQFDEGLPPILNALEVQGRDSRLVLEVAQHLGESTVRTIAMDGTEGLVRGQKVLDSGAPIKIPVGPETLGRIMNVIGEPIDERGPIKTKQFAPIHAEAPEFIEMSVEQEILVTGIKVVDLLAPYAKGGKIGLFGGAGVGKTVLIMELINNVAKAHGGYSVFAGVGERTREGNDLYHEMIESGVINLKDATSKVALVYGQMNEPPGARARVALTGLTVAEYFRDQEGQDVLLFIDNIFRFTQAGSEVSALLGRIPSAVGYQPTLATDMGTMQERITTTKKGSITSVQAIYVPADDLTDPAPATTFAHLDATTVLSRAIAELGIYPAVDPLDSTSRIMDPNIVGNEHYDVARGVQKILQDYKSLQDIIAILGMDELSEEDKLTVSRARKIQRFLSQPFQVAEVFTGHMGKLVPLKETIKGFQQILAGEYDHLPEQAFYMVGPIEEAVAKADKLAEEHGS

Molecular target: FoF1-ATP synthase α subunit (ATPA) (mouse (endogenous in mouse heart)) (UniProt Q03265)
Assay: cross-linking; isobaric quantitative PIR cross-linker GG-BDP-NHP (10 mM) added to minced heart tissue of 5 TAC and 5 sham-operated mice in 170 mM Na2HPO4 pH 8.0, 30 min, room temperature; mitochondria then isolated, digested, cross-linked peptides enriched on avidin and identified by LC-MS/MS; links mapped on PDB 6j5k

Substance: FoF1-ATP synthase β subunit (ATPB) (from UniProt P56480 47-529)
- binding: binds
